Results taken from patent US11427783B2, “Perfuming compositions” (Firmenich SA, priority 2016, dated 2022).

Assay: Odor threshold of perfuming compounds in air
[1] = Table 6, perfuming compounds having a fruity note
[2] = Table 5, perfuming compounds having a green note
[3] = perfuming compounds having a fruity note (Table 6)
[4] = Table 10, perfuming compounds having a woody note
[5] = Table 8, perfuming compounds having a sweet note
[6] = Table 9, perfuming compounds having a gourmand note

Molecule: CC(=O)OC(c1ccccc1)C(Cl)(Cl)Cl (racemic) [(+−)-2,2,2-TRICHLORO-1-PHENYLETHYL ACETATE]
- Odor Threshold (μg/l air) [1]: 1.15E−03 μg/l air

Molecule: CC(=O)OCC=C(C)C [3-methyl-2-buten-1-yl acetate]
- Odor Threshold [2]: 5.58E−02 μg/l air
- Odor Threshold [3]: 5.58E−02 μg/l air

Molecule: CC(=O)/C=C/C1=C(C)CCCC1(C)C [(3E)-4-(2,6,6-trimethyl-1-cyclohexen-1-yl)-3-buten-2-one]
- Odor Threshold (μg/l air) [4]: 3.58E−05 μg/l air

Molecule: CCCCCC1CCCC1=O (racemic) [(+−)-2-pentylcyclopentanone]
- Odor Threshold (μg/l air) [5]: 1.28E−03 μg/l air
- Odor Threshold (μg/l air) [6]: 1.28E−03 μg/l air
- Odor Threshold [3]: 1.28E−03 μg/l air

Molecule: C=CC(O)CCCCC (racemic) [(+−)-1-octen-3-ol]
- Odor Threshold [2]: 1.77E−03 μg/l air

Molecule: CCCCCCCCC1CCC(=O)O1 (racemic) [(+−)-5-octyldihydro-2(3H)-furanone]
- Odor Threshold (μg/l air) [1]: 2.85E−05 μg/l air

Molecule: COc1cc(C)ccc1O [2-METHOXY-4-METHYLPHENOL]
- Odor Threshold (μg/l air) [5]: 6.96E−04 μg/l air

Molecule: CCC(=O)OC/C=C/c1ccccc1 [(E)-3-PHENYL-2-PROPENYL PROPANOATE]
- Odor Threshold (μg/l air) [1]: 1.28E−04 μg/l air

Molecule: C=CC(=C)CCC=C(C)C
- Odor Threshold [3]: 4.12E−02 μg/l air

Molecule: C=CCOC(=O)COC1CCCCC1 [ALLYL (CYCLOHEXYLOXY)ACETATE]
- Odor Threshold [2]: 4.66E−05 μg/l air
- Odor Threshold (μg/l air) [1]: 4.66E−05 μg/l air

Molecule: C=C1CCCC(C)(C)C1C(=O)OC (racemic)
- Odor Threshold [3]: 5.78E−04 μg/l air

Molecule: CC(=O)OCCC(C)CCC=C(C)C (stereo not drawn) [3,7-DIMETHYL-6-OCTENYL ACETATE]
- Odor Threshold (μg/l air) [1]: 2.75E−02 μg/l air

Molecule: COC(=O)C=C1CCCC1 [methyl cyclopentylideneacetate]
- Odor Threshold [3]: 2.80E−02 μg/l air

Molecule: CCCCCCCC=O [OCTANAL]
- Odor Threshold [2]: 2.77E−04 μg/l air

Molecule: CC/C=C\CCOC(C)=O [(Z)-3-HEXENYL ACETATE]
- Odor Threshold [2]: 1.00E−02 μg/l air

Molecule: CCOC(=O)CC(C)=O
- Odor Threshold [2]: 5.83E−02 μg/l air
- Odor Threshold [3]: 5.83E−02 μg/l air

Molecule: CCC(=CCC1CC=C(C)C1(C)C)CO (racemic)
- Odor Threshold (μg/l air) [4]: 7.80E−05 μg/l air

Molecule: COc1ccc(CCC(C)=O)cc1 [4-(4-METHOXYPHENYL)-2-BUTANONE]
- Odor Threshold (μg/l air) [1]: 5.88E−06 μg/l air
- Odor Threshold (μg/l air) [5]: 5.88E−06 μg/l air
- Odor Threshold (μg/l air) [6]: 5.88E−06 μg/l air

Molecule: CC(C)CC(=O)OCc1ccccc1 [BENZYL 3-METHYLBUTANOATE]
- Odor Threshold (μg/l air) [1]: 7.31E−03 μg/l air
- Odor Threshold (μg/l air) [5]: 7.31E−03 μg/l air

Molecule: CCCC1CCC(O)C(OC)C1 (stereo not drawn) [2-METHOXY-4-PROPYL-1-CYCLOHEXANOL]
- Odor Threshold [2]: 2.85E−02 μg/l air

Molecule: C=CCOC(=O)CCCCC [ALLYL HEXANOATE]
- Odor Threshold [3]: 4.58E−02 μg/l air

Molecule: CC(=O)/C(C)=C/C1C(C)=CCCC1(C)C (racemic)
- Odor Threshold (μg/l air) [1]: 1.92E−04 μg/l air
- Odor Threshold (μg/l air) [4]: 5.03E−05 μg/l air

Molecule: COc1ccc(C=O)cc1 [4-METHOXYBENZALDEHYDE]
- Odor Threshold [2]: 1.81E−05 μg/l air

Molecule: CC(=O)/C=C/C1C(C)=CCCC1(C)C (racemic)
- Odor Threshold [2]: 5.30E−04 μg/l air

Molecule: CC(=O)OCCC1CCCCC1 [2-CYCLOHEXYLETHYL ACETATE]
- Odor Threshold (μg/l air) [5]: 4.49E−02 μg/l air
- Odor Threshold (μg/l air) [6]: 4.49E−02 μg/l air

Molecule: O=Cc1ccc2c(c1)OCO2 [benzo[d][1,3]dioxole-5-carbaldehyde]
- Odor Threshold (μg/l air) [6]: 1.01E−04 μg/l air

Molecule: CCCCSCCCC [DIBUTYL SULFIDE]
- Odor Threshold [2]: 2.34E−02 μg/l air

Molecule: C=CC(C)(O)CCC=C(C)C (racemic) [(+−)-3,7-dimethyl-1,6-octadien-3-ol]
- Odor Threshold [3]: 8.89E−05 μg/l air

Molecule: CC(=O)OCc1ccccc1 [benzyl acetate]
- Odor Threshold [3]: 5.24E−03 μg/l air

Molecule: 8(9)-METHOXY-TRICYCLO[5.2.1.0(2,6)]DECANE-3(4)-CARBALDEHYDE
- Odor Threshold (μg/l air) [1]: 4.02E−05 μg/l air

Molecule: CC(=O)O[C@@H]1CC[C@@H]2C(C)(C)CCC[C@@]2(C)C1 (racemic)
- Odor Threshold (μg/l air) [4]: 4.19E−04 μg/l air

Molecule: CCOCOC1CCCCCCCCCCC1 [(ETHOXYMETHOXY)CYCLODODECANE]
- Odor Threshold (μg/l air) [4]: 8.90E−02 μg/l air

Molecule: SCc1ccco1 [2-FURANMETHANETHIOL]
- Odor Threshold (μg/l air) [5]: 1.43E−09 μg/l air

Molecule: CCC(=O)OCc1ccccc1 [BENZYL PROPANOATE]
- Odor Threshold [2]: 2.81E−02 μg/l air
- Odor Threshold (μg/l air) [1]: 2.81E−02 μg/l air

Molecule: CC(=O)C=CC1C(C)CCC(C)C1(C)C (racemic)
- Odor Threshold (μg/l air) [4]: 5.14E−04 μg/l air

Molecule: CCC(C)(O)CCCC(C)C (racemic)
- Odor Threshold [2]: 3.45E−03 μg/l air

Molecule: CCCCCCOC(=O)C(C)C [hexyl 2-methylpropanoate]
- Odor Threshold [2]: 7.15E−01 μg/l air
- Odor Threshold [3]: 7.15E−01 μg/l air

Molecule: CC(=O)OCCC(C)CC(C)(C)C (stereo not drawn) [3,5,5-TRIMETHYLHEXYL ACETATE]
- Odor Threshold [3]: 1.28E+00 μg/l air

Molecule: CC1(CO)CC1CC1CC2CC2(C)C1(C)C (stereo not drawn)
- Odor Threshold (μg/l air) [4]: 2.18E−06 μg/l air
